{"source": "PubChem BioAssay AID540256", "about": "(National Center for Advancing Translational Sciences (NCATS), 2011)", "note": "The whole screen tested about 300,000 compounds, of which about 3,700 (1.2%) were called active. Inconclusive means that the source gave no clear call. Such entries were picked first, then a sample of the others. The call rests on the fitted dose curve; tested in HEK293 cells. Where the call is inconclusive, the potency comes from a doubtful curve fit. Potency means the concentration at half of the fitted maximal effect."}
{"test": "qHTS for Inhibitors of binding or entry into cells for Lassa Virus; further: nearly all actives have a fitted effect of over 50% in size", "conditions": "Lassa virus pseudotype entry inhibition, cell reporter; series mostly up to 37.9 µM"}
{"smiles": "Cc1ccc(-n2ncc(C(=O)N3CCN(c4ccc(Cl)cc4)CC3)c2C2CCN(C(=O)OC(C)(C)C)CC2)c(C)c1", "Potency": "inconclusive: 1.12 µM [inhibitor, full curve, poor fit]"}
{"smiles": "CC(C)COc1ccc(CSCCNC(=S)Nc2ccccc2)cc1", "Potency": "inconclusive: 35.5 µM [inhibitor, single point]"}
{"smiles": "CN(C)S(=O)(=O)c1ccc(C(=O)Oc2cc(=O)[nH]c3ccccc23)cc1", "Potency": "inactive"}
{"smiles": "CCCN1C(=O)COc2ccc(-c3n[nH]c(=O)c4ccccc34)cc21", "Potency": "inactive"}
{"smiles": "C=CCn1c(SCC(=O)N2CCCC2)nc2scc(-c3cccs3)c2c1=O", "Potency": "inconclusive: 6.31 µM [inhibitor, single point]"}
{"smiles": "CCOC(=O)C1=C(C)N=c2s/c(=C/c3cccc([N+](=O)[O-])c3O)c(=O)n2C1c1cc(OC)c(OC)c(OC)c1", "note": "(stereo not given)", "Potency": "inactive"}
{"smiles": "COc1ccc(-c2cn3cccnc3n2)cc1NC(=O)c1cc(C)cc(C)c1", "Potency": "inactive"}
{"smiles": "Cc1cc(Cl)ccc1OCC(=O)N(Cc1ccco1)Cc1ccco1", "Potency": "inactive"}
{"smiles": "Cc1ccc(S(=O)(=O)N2CN(CC3CCCO3)c3nc4ccccc4nc32)cc1", "note": "(stereo not given)", "Potency": "inconclusive: 0.891 µM [inhibitor, full curve, poor fit]"}
{"smiles": "CC1=C(C(=O)Nc2ccccc2)C(c2coc3ccccc3c2=O)C2=C(CCCC2=O)N1", "note": "(stereo not given)", "Potency": "inconclusive: 15.8 µM [inhibitor, single point]"}
{"smiles": "COc1ccc(OCC(=O)N/N=C/c2ccc(N(C)C)cc2)cc1", "Potency": "inconclusive: 1 µM [inhibitor, full curve, poor fit]"}
{"smiles": "CCOC(=O)c1ccc(NC(=O)NC(C)C2CCCO2)cc1", "note": "(stereo not given)", "Potency": "inactive"}
{"smiles": "Cc1sc(NC(=O)/C=C/C(=O)O)c(C(N)=O)c1-c1ccc(C(C)(C)C)cc1", "Potency": "inconclusive: 15.8 µM [inhibitor, single point]"}
{"smiles": "NC(=S)N/N=C\\c1ccccc1OCc1ccccc1", "Potency": "inactive"}
{"smiles": "Cc1ccc(C(=O)N/C(=C\\c2ccc(F)cc2)C(=O)NCc2ccncc2)cc1", "Potency": "inconclusive: 0.794 µM [inhibitor, single point]"}
{"smiles": "CC(=O)Nc1ccc(S(=O)(=O)NCC2CCC(C(=O)NCCCN(C)Cc3ccccc3)CC2)cc1", "note": "(stereo not given)", "Potency": "inconclusive: 35.5 µM [activator, single point]"}
{"smiles": "NC(=S)N/N=C/c1ccc(-n2nncc2-c2ccc(Cl)cc2)cc1", "Potency": "active: 11.2 µM"}
{"smiles": "S=C(Nc1ccccc1)N1CCCCCCC1", "Potency": "inactive"}
{"smiles": "CC(C)CNC(=O)c1cccc(NC(=O)c2ccc(Cl)c([N+](=O)[O-])c2)c1", "Potency": "inconclusive: 22.4 µM [inhibitor, single point]"}
{"smiles": "COCCN(C(=O)COC(=O)/C=C/c1nc2ccccc2s1)c1c(N)n(Cc2ccccc2)c(=O)[nH]c1=O", "Potency": "inactive"}
